Reference: PubChem BioAssay AID1259254 (NCATS, 2017)

Test: 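Finding genes that stop cells copying their DNA twice in one cycle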 (primary screen)
Cell system: human HCT116 colorectal cancer cells
Reagent: single siRNA against human genes
Timing: 3 days
Measurement: 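Imaged Hoechst DNA stain sorts each cell into a cycle phase by DNA amount; per plate, G2 fraction set to 0% for non-targeting and 100% for GMNN siRNA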
Direction: G2 robust z-score and G2 cells, % of GMNN control: higher = more G2 cells, more excess DNA replication; raw share of cells in G2: higher = larger share of cells with G2 DNA content
Active means: 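An siRNA counts as active if its G2 robust z-score lies at least 5 MADs above the screen median; here such calls match roughly 38% of GMNN control or more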
In all, the deposit lists about 59,000 reagents; this is a part drawn at random. Of all reagents, about 1,550 (2.6%) were called active. 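G2 share is only a proxy for re-replication; each gene was hit by three separate siRNAs, and active genes were retested.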 The raw values are shown without normalisation. The numbers tell different reagents against one gene apart. No sequences are given here. The record does not give: the amount of reagent.

| gene | siRNA no. | G2 robust z-score | G2 cells, % of GMNN control | raw share of cells in G2 (%) | outcome |
| --- | --- | --- | --- | --- | --- |
| DNAJC17 | 1 | 0.804 | 8.62 | 5.84 | inactive |
| DNAJC17 | 2 | -0.702 | -1.97 | 5.02 | inactive |
| DNAJC17 | 3 | -0.759 | -2.37 | 2.89 | inactive |
| DCAF7 | 1 | 3.81 | 29.7 | 18.8 | inactive |
| DCAF7 | 2 | -0.0135 | 2.87 | 5.14 | inactive |
| DCAF7 | 3 | -0.00432 | 2.94 | 4.47 | inactive |
| RPS26P31 | 1 | 3.71 | 29.1 | 14 | inactive |
| RPS26P31 | 2 | 4.73 | 36.2 | 14.5 | inactive |
| RPS26P31 | 3 | 0.69 | 7.82 | 6.73 | inactive |
| ATP5F1B | 1 | 0.152 | 4.04 | 6.76 | inactive |
| ATP5F1B | 2 | 3.92 | 30.5 | 15.1 | inactive |
| ATP5F1B | 3 | 0.847 | 8.93 | 7.86 | inactive |
| CDC25A | 1 | -0.403 | 0.135 | 4.84 | inactive |
| CDC25A | 2 | -0.581 | -1.12 | 3.97 | inactive |
| CDC25A | 3 | -0.873 | -3.18 | 2.54 | inactive |
| ADPGK | 1 | 1.03 | 10.2 | 8.77 | inactive |
| ADPGK | 2 | -0.472 | -0.35 | 5.06 | inactive |
| ADPGK | 3 | 0.68 | 7.75 | 6.16 | inactive |
| MAGEE2 | 1 | 0.0278 | 3.16 | 5.37 | inactive |
| MAGEE2 | 2 | -0.792 | -2.6 | 2.28 | inactive |
| MAGEE2 | 3 | 2.12 | 17.9 | 9.05 | inactive |
| FSCN2 | 1 | 2.01 | 17.1 | 10.8 | inactive |
| FSCN2 | 2 | -0.297 | 0.876 | 4.32 | inactive |
| FSCN2 | 3 | -0.438 | -0.111 | 3.26 | inactive |
| MPTX1 | 1 | -0.485 | -0.443 | 3.13 | inactive |
| MPTX1 | 2 | -0.451 | -0.208 | 3.1 | inactive |
| MPTX1 | 3 | 1.32 | 12.3 | 6.42 | inactive |
| PPM1M | 1 | 1.57 | 14 | 9.36 | inactive |
| PPM1M | 2 | -1.07 | -4.58 | 2.92 | inactive |
| PPM1M | 3 | 1.09 | 10.6 | 6.69 | inactive |
